Measurements: PubChem BioAssay AID504327 (National Center for Advancing Translational Sciences (NCATS), 2011)
The whole screen tested about 390,000 compounds, of which about 820 (0.21%) were called active. This list was built around the results that the source calls inconclusive (neither active nor inactive); the mix of calls is not that of the screen. The call rests on the fitted dose curve; in most records, active means well fitted inhibition curve with a large enough effect; inconclusive means small, poorly fitted or top-dose-only effect, or another doubt; inactive means no such curve, though single readings can be large or run the other way. Where the call is inconclusive, the potency comes from a doubtful curve fit.

By UniProt entry, the sequences of proteins in these tests, tags left out.
UniProt Q92830, whole entry, looked up: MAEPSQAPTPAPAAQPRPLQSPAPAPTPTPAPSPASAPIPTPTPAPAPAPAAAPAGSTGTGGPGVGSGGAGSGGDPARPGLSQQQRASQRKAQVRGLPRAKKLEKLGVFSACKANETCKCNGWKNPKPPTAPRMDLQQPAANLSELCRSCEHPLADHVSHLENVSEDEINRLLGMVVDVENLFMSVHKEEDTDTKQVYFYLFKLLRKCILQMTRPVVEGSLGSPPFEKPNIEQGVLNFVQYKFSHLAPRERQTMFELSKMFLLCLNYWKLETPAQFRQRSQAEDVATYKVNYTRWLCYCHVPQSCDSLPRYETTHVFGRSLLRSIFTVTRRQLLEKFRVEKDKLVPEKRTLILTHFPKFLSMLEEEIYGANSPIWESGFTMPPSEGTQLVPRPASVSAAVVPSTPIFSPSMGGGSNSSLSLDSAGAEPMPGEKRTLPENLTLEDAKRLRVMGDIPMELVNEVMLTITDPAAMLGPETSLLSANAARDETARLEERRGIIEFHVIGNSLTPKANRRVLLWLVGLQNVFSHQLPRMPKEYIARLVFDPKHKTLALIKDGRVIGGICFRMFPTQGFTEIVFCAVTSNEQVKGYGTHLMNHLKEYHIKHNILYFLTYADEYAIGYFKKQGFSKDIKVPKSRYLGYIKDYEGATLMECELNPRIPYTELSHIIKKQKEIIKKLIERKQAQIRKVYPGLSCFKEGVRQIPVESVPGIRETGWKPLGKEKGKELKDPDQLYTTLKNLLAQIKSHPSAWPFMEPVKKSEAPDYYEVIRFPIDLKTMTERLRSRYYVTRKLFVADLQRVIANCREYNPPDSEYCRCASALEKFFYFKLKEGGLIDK

target: Histone acetyltransferase KAT2A (Homo sapiens) (UniProt Q92830); assay: qHTS Assay for Inhibitors of GCN5L2; details: GCN5L2 HAT assay, ThioGlo1 CoA-SH fluorescence; activity change, negative = inhibition: at 58.9 µM (top of the series) unless noted
In short: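 Compounds, pin-transferred from DMSO stocks, meet 20nM GCN5L2 for 15 min before the reaction begins with H3(1-25) peptide (75uM) and acetyl-CoA (70uM). Thiol-reactive ThioGlo1 reports CoA release over 20 min at room temperature.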
On the % scale 0 is the no-effect control and ±100 the full control effect; potency means the concentration at half of the fitted maximal effect.

SMILES | activity change, negative = inhibition | Potency
CCOCCCn1c(=S)[nH]c2cc(C(=O)N3CCC(C(N)=O)(N4CCCCC4)CC3)ccc2c1=O | inactive: -5.88% | –
CN(c1ccccc1)c1ccc(/C=C(\CCC(=O)O)c2nc3ccccc3s2)cc1[N+](=O)[O-] | – | inconclusive: 15.8 µM [inhibitor, partial curve]
CC(C)c1ccc(-c2nnn(CCC(=O)O)n2)cc1 | – | inconclusive: 39.8 µM [inhibitor, single point]
Cc1nonc1N1CCN(Cc2cn[nH]c2-c2ccc(F)cc2F)CC1 | – | inconclusive: 39.8 µM [inhibitor, single point]
O=C(O)CCN1C(=O)CC(N2C(=O)/C(=C/c3ccc(Cl)cc3)SC2=S)C1=O (stereo not drawn) | – | inconclusive: 25.1 µM [inhibitor, partial curve]
CCn1c(SCC(=O)c2ccc(OC)cc2)nnc1C1CC1 | – | inconclusive: 5.01 µM [inhibitor, partial curve]
Cc1ccc(C(=O)N2CCc3cc(CNC(=O)c4ccnn4C)ccc32)cc1 | inactive: -4.08% | –
CC(C)C[C@H](NC(=O)c1[nH]cnc1C(=O)N[C@@H](C)C(=O)OCc1ccccc1)C(=O)OC(C)(C)C | – | inconclusive: 28.2 µM [inhibitor, single point]
COc1cccc(NS(=O)(=O)c2ccc3c(c2)NC(=O)C(C)C(=O)N3)c1 (stereo not drawn) | – | inconclusive: 2.82 µM [inhibitor, partial curve]
CCCC[C@H](CC)CN1CN(C[C@@H](CC)CCCC)CC(C)(N)C1 | – | inconclusive: 15.8 µM [inhibitor, single point]
O=c1nc2ccccc2c(NS(=O)(=O)c2ccc(Cl)cc2)n1-c1ccccc1 | – | active: 3.16 µM
O=C(NCc1ccc2c(c1)OCO2)C(=O)NCC1OCCN1S(=O)(=O)c1ccc(Cl)cc1 (stereo not drawn) | – | inconclusive: 3.55 µM [inhibitor, full curve, poor fit]
Cc1nc(NC(=S)NC(=O)c2cccs2)sc1C(=O)N(C)C | inactive: 3.03% | –
CN1C(=O)C2(c3ccccc31)C1CCCC=C1C(C#N)=C(N)C2(C#N)C#N (stereo not drawn) | – | inconclusive: 0.891 µM [inhibitor, full curve, poor fit]
CC(C)(Oc1ccc(Cl)cc1)C(=O)Nc1ccncc1 | – | inconclusive: 39.8 µM [inhibitor, single point]
c1ccc(Oc2c3ccccc3nc3ccccc23)cc1 | – | inconclusive: 0.708 µM [inhibitor, full curve, poor fit]
NC(=O)CN1C(=O)/C(=c2\sc3nc(=O)c(Cc4ccccc4)nn3c2=O)c2ccccc21 | inactive: -15.4% | –
COc1cccc(CN2CCC(Oc3ccc(C(=O)N4CCCCC4)cc3)CC2)c1O | – | inconclusive: 25.1 µM [inhibitor, partial curve, poor fit]
O=C(O)c1cc(-c2ccc(Br)s2)nc2ccccc12 | – | inconclusive: 0.708 µM [inhibitor, single point]
Cc1cccc(OCC(=O)Nc2nccs2)c1C | – | inconclusive: 2 µM [inhibitor, partial curve]
COc1ccc(NC(=O)COC(=O)CCSc2ccccc2)cc1OC | – | inconclusive: 1.12 µM [inhibitor, single point]
Cc1ccc(NC(=O)C2CCN(C(=O)c3cnn(-c4ccccc4)c3-n3cccc3)CC2)cc1Cl | inactive: -8.6% | –

SMILES | activity change, negative = inhibition | Potency
COc1cc(OC)c2c(-c3cccc(-c4ccc(O)cc4)c3)cc(=O)oc2c1 | – | inconclusive: 11.2 µM [inhibitor, single point]
Cc1ccc2cc(CCNC(=O)c3cc4ccccc4o3)c(=O)[nH]c2c1C | inactive: -3.01% | –
O=C(NCCCN1CCCC1=O)c1cccc(S(=O)(=O)Nc2ccc(Br)cc2)c1 | – | inconclusive: 39.8 µM [inhibitor, single point]
O=C(Nc1cccc(Cl)c1)Nc1nnc(-c2ccncc2)s1 | – | inconclusive: 10 µM [inhibitor, partial curve]
Cc1ccc(/C=C2\SC(=S)N(/N=C/c3cc([N+](=O)[O-])ccc3O)C2=O)o1 | – | inconclusive: 39.8 µM [inhibitor, single point]
COc1ccc(CCNC(=O)c2cc3c(=O)n4ccccc4nc3n(Cc3ccco3)c2=N)cc1OC | – | inconclusive: 0.501 µM [inhibitor, full curve, poor fit]
CCCCCCC(=O)N(O)C1CC(=O)N(c2ccccc2)C1=O (stereo not drawn) | – | inconclusive: 25.1 µM [inhibitor, single point]
CC(=O)c1ccc(NC(=O)CSc2nnc3c(n2)[nH]c2ccccc23)cc1 | inactive: -16.1% | –
O=C(O)CSc1c2c(nc3cc(C(=O)Nc4ccc(F)c(Cl)c4)ccc13)CCCC2 | inactive: -21.1% | –
C/C(CS(=O)(=O)c1ccc(Cl)c(Cl)c1)=N/NC(N)=S | inactive: 8.43% | –
CC(C)NC(=O)c1c(CSc2ccc(Cl)cc2)noc1C(=O)NCc1ccccc1 | – | inconclusive: 35.5 µM [inhibitor, single point]
CCOc1ccc(NC(=O)CSc2nc3ccccc3nc2N2CCOCC2)cc1 | – | inconclusive: 3.55 µM [inhibitor, single point]
CC(=O)c1ccc(C(=O)NC2CCCN(Cc3ccccc3F)C2)s1 (stereo not drawn) | – | inconclusive: 10 µM [inhibitor, single point]
Cc1ccc(-c2nnc(Nc3ccc(F)cc3)c3ccccc23)cc1S(=O)(=O)NC(C)C | inactive: -2.95% | –
O=C(NCCCN1CCN(c2ccccc2F)CC1)c1ccc2nc(Cc3ccccc3)oc2c1 | inactive: -0.398% | –
O=C(N/N=C/c1cc(Cl)cc(Cl)c1O)c1ccncc1 | – | inconclusive: 39.8 µM [inhibitor, single point]
N#Cc1nc(-c2ccco2)oc1N1CCc2ccccc2C1 | – | inconclusive: 31.6 µM [inhibitor, single point]
COc1ccc(C(=O)OCC(=O)c2c(N)n(C)c(=O)n(C)c2=O)c(OC)c1OC | – | inconclusive: 6.31 µM [inhibitor, single point]
COc1ccccc1N1CC(C(=O)Nc2ccc(N3CCOCC3)cc2)CC1=O (stereo not drawn) | inactive: -5.31% | –
O=C1c2ccccc2C(=O)N1CSc1nnc2c3ccccc3n(CCc3ccccc3)c2n1 | inactive: 4.91% | –
O=C(O)c1ccccc1Nc1cccc(OCc2ccc3ccccc3n2)c1 | – | active: 28.2 µM

Complete entries, looked up by structure.
COc1ccc(CCNC(=O)c2cc3c(=O)n4ccccc4nc3n(Cc3ccco3)c2=N)cc1OC is listed as Potency: inconclusive: 0.501 µM [inhibitor, full curve, poor fit]
O=C(N/N=C/c1cc(Cl)cc(Cl)c1O)c1ccncc1 is listed as Potency: inconclusive: 39.8 µM [inhibitor, single point]
